Laboratory results as given in doi:10.1101/2022.10.22.513346 (bioRxiv, 2022).
Where a chain is given by its changes, count along the chain named. No constants are given. Whether binding was seen depends on the method and setting. Binding seen in cells or lysates may run through a third protein. Binding calls can cover weak binding; strength is not graded here. Where a sequence is shown, tags or fusion partners need not be part of it.

Tests used:
[1] = molecular target: T1, FLAG-AGO1^Y691E (Arabidopsis thaliana) (UniProt O04379); experiment: co-IP
T1 sequence: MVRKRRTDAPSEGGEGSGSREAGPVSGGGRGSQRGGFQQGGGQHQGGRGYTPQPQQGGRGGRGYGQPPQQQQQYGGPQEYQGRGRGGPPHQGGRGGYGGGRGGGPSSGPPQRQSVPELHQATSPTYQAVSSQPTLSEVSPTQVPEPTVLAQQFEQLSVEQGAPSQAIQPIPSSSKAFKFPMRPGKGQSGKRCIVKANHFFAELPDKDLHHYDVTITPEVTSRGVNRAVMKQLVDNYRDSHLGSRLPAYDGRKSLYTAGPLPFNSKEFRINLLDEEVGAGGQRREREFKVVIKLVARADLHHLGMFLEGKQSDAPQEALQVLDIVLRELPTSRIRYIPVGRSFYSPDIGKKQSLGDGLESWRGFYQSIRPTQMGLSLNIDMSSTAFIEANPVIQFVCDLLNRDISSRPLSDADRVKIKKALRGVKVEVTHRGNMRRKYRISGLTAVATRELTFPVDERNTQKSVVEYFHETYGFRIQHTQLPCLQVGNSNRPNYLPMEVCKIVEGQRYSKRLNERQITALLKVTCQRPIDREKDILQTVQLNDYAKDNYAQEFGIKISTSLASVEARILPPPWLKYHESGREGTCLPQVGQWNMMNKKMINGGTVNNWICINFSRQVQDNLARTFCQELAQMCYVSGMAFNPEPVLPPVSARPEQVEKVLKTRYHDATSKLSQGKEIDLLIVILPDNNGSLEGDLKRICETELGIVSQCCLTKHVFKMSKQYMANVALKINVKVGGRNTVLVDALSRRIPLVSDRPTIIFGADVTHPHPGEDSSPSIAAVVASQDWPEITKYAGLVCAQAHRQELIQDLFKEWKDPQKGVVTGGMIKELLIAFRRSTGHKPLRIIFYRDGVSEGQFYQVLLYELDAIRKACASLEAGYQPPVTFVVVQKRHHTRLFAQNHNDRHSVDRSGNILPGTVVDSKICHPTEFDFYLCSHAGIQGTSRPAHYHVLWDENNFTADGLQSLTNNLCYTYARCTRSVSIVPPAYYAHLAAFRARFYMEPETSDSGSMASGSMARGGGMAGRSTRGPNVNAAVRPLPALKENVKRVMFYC

[2] = molecular target: T2, FLAG-AGO1^KKME/Y691E (Arabidopsis thaliana) (UniProt O04379); experiment: co-IP
T2 sequence: T1 sequence with K185E, K190E, M304E, E307A

HSP70
binding [1]: binds
binding [2]: binds
